Laboratory results published in paper PMC13503787.
These are yes or no findings as the source states them, for the method shown. Binding seen in cells or lysates may run through a third protein. Some results given as binding are weak or reduced against the parent protein; the word gives no strength.

Amino acid sequences for entries named in this document (tags omitted).
UniProt Q6KC79: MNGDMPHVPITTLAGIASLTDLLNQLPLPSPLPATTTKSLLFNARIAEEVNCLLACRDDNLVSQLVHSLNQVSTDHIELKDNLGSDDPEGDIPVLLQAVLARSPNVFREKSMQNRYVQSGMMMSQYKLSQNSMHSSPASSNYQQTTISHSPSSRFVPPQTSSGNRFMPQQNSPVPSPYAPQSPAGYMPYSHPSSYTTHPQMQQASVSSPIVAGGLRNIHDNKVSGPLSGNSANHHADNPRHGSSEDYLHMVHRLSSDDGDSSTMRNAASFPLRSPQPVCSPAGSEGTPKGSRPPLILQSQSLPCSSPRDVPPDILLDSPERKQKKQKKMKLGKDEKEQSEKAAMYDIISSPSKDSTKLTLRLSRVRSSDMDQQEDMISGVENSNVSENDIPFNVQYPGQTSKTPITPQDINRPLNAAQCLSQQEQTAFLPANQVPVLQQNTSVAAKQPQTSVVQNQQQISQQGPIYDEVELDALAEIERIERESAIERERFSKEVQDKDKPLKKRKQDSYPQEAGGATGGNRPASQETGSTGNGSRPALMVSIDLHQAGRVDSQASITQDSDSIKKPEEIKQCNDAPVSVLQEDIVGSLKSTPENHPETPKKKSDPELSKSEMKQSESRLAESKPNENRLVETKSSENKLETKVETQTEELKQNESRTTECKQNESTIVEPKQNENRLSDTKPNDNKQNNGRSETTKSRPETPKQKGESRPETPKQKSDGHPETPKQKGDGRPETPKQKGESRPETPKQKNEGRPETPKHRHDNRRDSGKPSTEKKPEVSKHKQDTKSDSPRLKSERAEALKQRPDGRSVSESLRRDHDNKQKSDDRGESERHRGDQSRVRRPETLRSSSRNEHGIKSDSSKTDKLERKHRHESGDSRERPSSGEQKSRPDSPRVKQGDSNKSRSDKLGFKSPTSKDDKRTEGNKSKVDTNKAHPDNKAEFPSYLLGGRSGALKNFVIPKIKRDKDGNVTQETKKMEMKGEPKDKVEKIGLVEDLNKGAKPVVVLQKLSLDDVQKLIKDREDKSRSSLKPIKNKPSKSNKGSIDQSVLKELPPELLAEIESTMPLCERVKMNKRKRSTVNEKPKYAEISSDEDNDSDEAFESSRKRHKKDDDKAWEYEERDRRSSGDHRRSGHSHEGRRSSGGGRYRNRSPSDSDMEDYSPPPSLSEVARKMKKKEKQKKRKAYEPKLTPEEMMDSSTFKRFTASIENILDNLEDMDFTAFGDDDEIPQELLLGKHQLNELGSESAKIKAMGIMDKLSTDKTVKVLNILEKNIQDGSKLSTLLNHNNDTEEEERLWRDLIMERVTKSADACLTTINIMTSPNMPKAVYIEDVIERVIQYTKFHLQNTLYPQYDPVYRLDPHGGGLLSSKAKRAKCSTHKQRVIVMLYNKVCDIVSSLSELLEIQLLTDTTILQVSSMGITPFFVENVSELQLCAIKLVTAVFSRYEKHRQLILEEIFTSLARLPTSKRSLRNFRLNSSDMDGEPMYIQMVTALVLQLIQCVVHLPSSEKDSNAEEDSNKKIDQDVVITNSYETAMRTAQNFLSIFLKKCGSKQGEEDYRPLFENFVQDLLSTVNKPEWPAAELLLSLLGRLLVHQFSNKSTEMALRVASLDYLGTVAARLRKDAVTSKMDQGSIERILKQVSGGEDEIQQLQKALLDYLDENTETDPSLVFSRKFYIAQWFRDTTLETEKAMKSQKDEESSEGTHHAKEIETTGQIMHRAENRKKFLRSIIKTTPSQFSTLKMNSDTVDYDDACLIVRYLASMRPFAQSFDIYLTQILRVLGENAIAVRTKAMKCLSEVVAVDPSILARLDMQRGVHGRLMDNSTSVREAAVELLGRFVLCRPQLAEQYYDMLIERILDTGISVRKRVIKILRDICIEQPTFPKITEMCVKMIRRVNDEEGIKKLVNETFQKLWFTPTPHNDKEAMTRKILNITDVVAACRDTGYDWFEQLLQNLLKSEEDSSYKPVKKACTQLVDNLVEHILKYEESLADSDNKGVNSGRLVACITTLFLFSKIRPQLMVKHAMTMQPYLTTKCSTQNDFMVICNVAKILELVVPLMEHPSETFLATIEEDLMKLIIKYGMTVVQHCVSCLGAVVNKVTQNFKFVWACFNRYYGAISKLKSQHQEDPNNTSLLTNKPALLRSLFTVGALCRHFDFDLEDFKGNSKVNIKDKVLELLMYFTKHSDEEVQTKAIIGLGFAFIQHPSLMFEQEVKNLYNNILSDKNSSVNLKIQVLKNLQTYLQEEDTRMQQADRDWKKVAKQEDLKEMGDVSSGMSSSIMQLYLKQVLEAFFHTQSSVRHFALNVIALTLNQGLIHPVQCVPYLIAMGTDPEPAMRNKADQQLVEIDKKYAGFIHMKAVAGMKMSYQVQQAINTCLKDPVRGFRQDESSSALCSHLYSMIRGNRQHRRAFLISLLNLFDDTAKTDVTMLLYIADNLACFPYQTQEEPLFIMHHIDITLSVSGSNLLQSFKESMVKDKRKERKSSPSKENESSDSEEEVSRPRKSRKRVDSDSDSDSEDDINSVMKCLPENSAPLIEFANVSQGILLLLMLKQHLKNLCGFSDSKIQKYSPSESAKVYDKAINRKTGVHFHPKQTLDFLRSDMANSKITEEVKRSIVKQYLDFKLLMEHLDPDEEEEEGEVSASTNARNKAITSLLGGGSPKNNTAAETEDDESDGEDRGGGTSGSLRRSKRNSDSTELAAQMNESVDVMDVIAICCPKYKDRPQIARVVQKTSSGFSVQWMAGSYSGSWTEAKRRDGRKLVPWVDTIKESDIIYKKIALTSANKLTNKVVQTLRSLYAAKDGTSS

Biological target: FLAG-tagged endogenous NIPBL (human (endogenous in the FLAG-NIPBL cells)) (UniProt Q6KC79)
Assay: co-IP; nuclear fraction of cells expressing endogenous FLAG-tagged NIPBL; NIPBL precipitated with antibodies against FLAG or NIPBL; controls: NIPBL siRNA, cells without the FLAG tag; cells untreated or treated with triptolide; blots of RPB1 and MAU2

- binding: binds
B1: MAU2 (protein, UniProt Q9Y6X3 1-613)
chain: MAAQAAAAAQAAAAQAAQAEAADSWYLALLGFAEHFRTSSPPKIRLCVHCLQAVFPFKPPQRIEARTHLQLGSVLYHHTKNSEQARSHLEKAWLISQQIPQFEDVKFEAASLLSELYCQENSVDAAKPLLRKAIQISQQTPYWHCRLLFQLAQLHTLEKDLVSACDLLGVGAEYARVVGSEYTRALFLLSKGMLLLMERKLQEVHPLLTLCGQIVENWQGNPIQKESLRVFFLVLQVTHYLDAGQVKSVKPCLKQLQQCIQTISTLHDDEILPSNPADLFHWLPKEHMCVLVYLVTVMHSMQAGYLEKAQKYTDKALMQLEKLKMLDCSPILSSFQVILLEHIIMCRLVTGHKATALQEISQVCQLCQQSPRLFSNHAAQLHTLLGLYCVSVNCMDNAEAQFTTALRLTNHQELWAFIVTNLASVYIREGNRHQEVLYSLLERINPDHSFPVSSHCLRAAAFYVRGLFSFFQGRYNEAKRFLRETLKMSNAEDLNRLTACSLVLLGHIFYVLGNHRESNNMVVPAMQLASKIPDMSVQLWSSALLRDLNKACGNAMDAHEAAQMHQNFSQQLLQDHIEACSLPEHNLITWTDGPPPVQFQAQNGPNTSLASLL
